Results are given in words; binding and its absence hold for the method and conditions named. In cells and extracts the contact can be indirect. Here binding means that the protein was enriched with, or labelled near, the bait; the list need not be complete.
Target: T1, Sec5-3mCherry (S. pombe) (UniProt O94598)
T1 sequence: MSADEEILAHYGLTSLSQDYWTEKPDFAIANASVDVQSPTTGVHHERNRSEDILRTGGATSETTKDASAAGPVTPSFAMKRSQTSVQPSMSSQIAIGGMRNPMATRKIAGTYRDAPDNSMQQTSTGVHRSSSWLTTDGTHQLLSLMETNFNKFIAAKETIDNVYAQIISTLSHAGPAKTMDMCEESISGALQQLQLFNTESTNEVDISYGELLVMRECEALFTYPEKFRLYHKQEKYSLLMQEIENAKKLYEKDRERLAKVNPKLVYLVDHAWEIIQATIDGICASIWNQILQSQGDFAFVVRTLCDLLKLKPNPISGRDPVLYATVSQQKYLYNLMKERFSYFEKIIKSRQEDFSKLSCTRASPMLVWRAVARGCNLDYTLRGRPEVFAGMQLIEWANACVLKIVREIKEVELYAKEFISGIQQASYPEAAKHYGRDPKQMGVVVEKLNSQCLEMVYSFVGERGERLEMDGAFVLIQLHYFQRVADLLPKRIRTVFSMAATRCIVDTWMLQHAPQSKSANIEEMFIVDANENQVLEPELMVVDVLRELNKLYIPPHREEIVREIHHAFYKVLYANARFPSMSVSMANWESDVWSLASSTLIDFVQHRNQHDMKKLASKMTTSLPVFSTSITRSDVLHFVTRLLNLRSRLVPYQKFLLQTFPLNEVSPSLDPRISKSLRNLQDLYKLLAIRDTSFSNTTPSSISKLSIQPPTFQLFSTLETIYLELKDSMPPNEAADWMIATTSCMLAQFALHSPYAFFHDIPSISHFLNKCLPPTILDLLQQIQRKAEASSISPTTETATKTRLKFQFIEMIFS
Test: affinity purification with mass spectrometry; Sec5-3mCherry immunoprecipitated with anti-tdimer2 antibody crosslinked to Protein G Dynabeads, 1 hr, from a 1:1 mix of SILAC extracts of cells treated with methanol (light) or 30 uM 3-BrB-PP1 (heavy, Orb6 inhibition) for 45 min; lysis buffer 50 mM Tris-HCl pH 7.5, 150 mM NaCl, 0.2% Triton X-100; five washes; SDS-PAGE, in-gel digestion, LC-MS/MS

Molecule	binding
Sec3	binds
Sec6 (protein, UniProt O74846 1-752) MTAAASDDAVYNKVADILRQCEDFHRLSTHIERFEREQASLNMHVKTELEKHVEAVELGKLALHDAQTKRVKLLQELHNMLTLCESAREMVDEFPLISRMSRIYKNCYATKQMISQLNNLVKETDVIEDMLREDLELDSDMPNLLRAHYKLSKLREFREEALYQASLEGQSDLPITLENSFSNLNTLSDNFDRLVLNFCRNIFQLVKSGHIKTIVQIFKIVEAEESSDEVLKSIRDAKSSLPDSQDGPFLSLQGMTRQLRNFRLRVLEEFQGAAAENFQRAWVSYLEDGSGELNLDFIFEDLKVAFYVLPDLTPPSYNIAKTFASIYQECLVGLVTKAVSLDTPAAVYLYLINFHREYRKFFEENAPFSVDEVEPGLEDGKDGILVREYTRLFTQKIREWSDKLFQSSVDTFMKRESEPELDSDGNYGLQGTIIFFQMITQQINIISHTNNSDVVGIVLSSIMYIMQSMQDQWKSVMRSELSQQLSGNPESVPPGLMEYLLAVANDNLKCAGFMDNTLLNTFELITSEREEDLREAFGKTVDGYILISDIGVSQIVAIISNDVKPALTSLFQPNWYQSSNMKLIVDTFRDYIVDCIEHMVPGLFDVFLLEASNALTISYLRSIFNKNACFDGDNAIQQIRSDIALAIRVFGEYMAAEHLRSTFEPIEKLLLGMLDADVETVSEYFHLLKEAYWDAPLSLVEAVLQNRTDLEKSIIKKMIDIVRHENDSLQIDTSQQPTVFSQVTSLSGSSIL	binds
Sec8 (protein, UniProt O74562 1-1073) MDTRGYSETKKGRYPVGKKSLESPNGYSNYGTSMDNELSSEYASRGMHIGDLENLVNEIEDEWKDLGREDYQPISTALELLDDSSFGRDYKSFLNVYDRISAALQTIAHTHKDDFTRGISAYGEIMEGIQKCNSRIIALKQSLEASQECIGNTNSKELQQTLARSSQYKKVISVLKELNEANQLFDNFHTLVDSKQYYHASDLIRRVWDELSRSDFDGILVVEQFKSRMTGLLSHLEDILSEELVSITFLKDAVAYPIVSYCSPNPLRETSNPYFLRDFLKNNANTSTLGQSEQLRYLEEALSLKLSDCLKMDYGRDSLRDIRIVLESLNLLGKLPNAISSLKSRTSAEMFTTVDSTSRAIVNKYSLGNNVSTVNPFSKSLYDIGLHAETDREHTMISEFLTNLFTKLRCVLMHYRGISEFMTKLETKTPKHASSSHKSSIMSVNSDPTSPKVSKFDTSDSTFPFDTLLQAFESEIRLMLKDYLISKEEYIENSGNFVVGTEMSIYNLPGENEEDKLFDVTNEIAVENKSNAFYARINELVNEKAPELILNKSNASVSTIELFSGSSKEIVRLAGHVVFVGPSVFHASSVLPQTVFFLEDSVSILKNPNIPPQFAVNFMKEFLRGSYIPQLYKFMSSHFDTIMKDVGAFQLHRDWKIYSKIPIFKCHVAIVQYFHDLQDYLPIVALNLVEFYELLHTLLVRFRNHCSDYLSDLCRTAVLKEYKHVNEDTEDVDDTVRVKLLHDDVTYPQFIKFLKQKNPSLEGLNELCRMENKRLLQYEDRAITSEVKLPVSVLSKDSDLVNSVSYLHNSMEWFLQRCFSRFMNGSRRMNVLQQNQANFGGDFLPIDNLLGNNSDLMKGAYKEVFDSLQRLQFDALLLIRMEVRLQYIHSINQSVNLPDYVVEYRGRPDASIMALNSTIVTTNLKLETCLNEWERRFVFQGLSELVDSSLYSIFYKIESMNRGSCLQMLKNMSAMIQILKTVKEIHGDVEFPKSSRVFGIYQNGAKKIIEHFIAAPKKELLPDVKQMVRIYYQRLMKDAKRNGRDDLYRQYQKKIGSVLTQFDNTVGGARKNP	binds
Sec15 (protein, UniProt O75006 1-768) MDIDVLEFVDKIASIESAGDTLDRLPQLISLACEKGQETQVYERLNELASKSAIRVEQLSAENNQDFSKSVNQLSVVRSELRSLQSLMADLNTDIQASGRDLQNMKQQLNSLSTSERFLTKYHNLVRSCMQVLHQVQYSQELLSKKQYLPTLRICSEISEVHLKRLDGLGMYSTIQQYIVTTKEAICSAVMEDLHEWLFSIRQKLPLVGKSCSQQIDEARRRWAREYKEDLVNLSSKTSISLELYLLEMMDFSPLDNEIVKISFEPLYICLQVHSYLGLLSSFRSSFERDRRRQQEFLAPKSLTTLDMAVVSEWLNSIAGFMIVEYYILQCIPNFRSYEEVQNIWTIICEKLVETILSVAFTEQSTTTIIKLKNQIVLLMHTMERFGFSVESLRNLCVELIDAFGGALILKHSVFFEEAFEKDVYAPMIVETQEEYDHYIAPYWNFPSEPFPRTMSFSKMCPLCCTTLSKFVRHFFMFLNDSVILATEVNEKAPRFYRRFILRSLVDRLKSLYPKLALSQMSQLVKNFYAFEDPLLQIEKSLVLNKPIHQIGAEASSSNNVKSTELLEGLANARKSALHEIFVKINLKIDDFLGLAEYDWTTTQVRKDVSGYLQEMVTYLQTMYLESLAGLPKHDKSYVYLETLDHLCTAMVDLLSDPSIRKVTTAAAEGFKLDVEYLESFAAQVPDQSIVNADSFIELRQCANLLLGDNMEEYLDTDKFMRDFNRLQPAVAIKFLERHINNYSANPLSNDRPKRRAIEILIATLKKR	binds

Source: PMC6367570
